Several values for one entry are separate records, joined by “and”; a condition that tells them apart may be missing. Identical values can stand only once. Counter-ions that a name gives are not always drawn. ± gives the standard deviation of the averaged measurements. The list shows a part of the results. Part of the spread comes from offsets between plates or batches.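 Primary human stellate myofibroblasts activated in culture; inactivation shown by regained lipid droplets. Readout: fraction of Hoechst-counted cells exceeding a per-plate Bodipy threshold, duplicate wells, each plate with DMSO negative and nortriptyline positive controls. Hits: control-normalized score beyond the plate's top-tenth-percentile nortriptyline wells, or among its three best wells. Final well concentrations unstated.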
System: primary human hepatic stellate cells (donor 1)
Test: percent Bodipy-positive cells; higher = more lipid droplet accumulation
Conditions: 48 h
Description: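 Primary lipid accumulation screen in primary human hepatic stellate cell myofibroblasts (donor 1, passage 8) in 384-well plates. 100 nL of library compound was pin-transferred into 30 µL medium in duplicate, and cells were treated for 48 h. The 'Scaled' score combines distance from plate baseline, toxicity and reproducibility penalties, and is normalised to nortriptyline (positive) and DMSO (negative) controls on each plate. A hit is defined as scaled >0.85 or among the top 3 wells per plate.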

[1] = library stock concentration: 10 mM
[2] = library stock concentration: 1 mM
[3] = library stock concentration: 3.33 mM
[4] = library stock concentration: 80 uM
[5] = library stock concentration: 400 uM
[6] = library stock concentration: 2 mM

O=C(O)C1CCCN(CCC=C(c2ccccc2)c2ccccc2)C1 (stereo unspecified)
percent Bodipy-positive cells [1]: 24.7% and 8.24%

CCCCC[C@H](O)/C=C/[C@@H]1[C@@H](C/C=C\CCCC(=O)NCC)[C@@H](O)C[C@H]1O [Prostaglandin F2.alpha. ethyl amide]
percent Bodipy-positive cells [2]: 7.55 ± 0.52%

CC(C)c1cc(-c2n[nH]c(=O)n2-c2ccc3c(ccn3C)c2)c(O)cc1O [Ganetespib (STA-9090)]
percent Bodipy-positive cells [3]: 73 ± 7.4%
percent Bodipy-positive cells [1]: 78.1 ± 5%

CC(C)c1cc(-c2n[nH]c(=O)n2-c2ccc3c(ccn3C)c2)c(O)cc1O [Ganetespib]
percent Bodipy-positive cells [4]: 52.1 ± 5.2%
percent Bodipy-positive cells [5]: 62.2 ± 11%

Clc1ccc(CO/N=C(\Cn2ccnc2)c2ccc(Cl)cc2Cl)c(Cl)c1
percent Bodipy-positive cells [1]: 93.3 ± 2.2%

Clc1ccc(CO/N=C(\Cn2ccnc2)c2ccc(Cl)cc2Cl)c(Cl)c1 [Oxiconazole nitrate]
percent Bodipy-positive cells (library stock concentration: 4.7 mM): 19.1 ± 5.4%
percent Bodipy-positive cells [1]: 51.2 ± 11%

COc1ccc(-c2ccc3ncc4c(c3c2)n(-c2ccc(N3CCNCC3)c(C(F)(F)F)c2)c(=O)n4C)cn1
percent Bodipy-positive cells [4]: 40.1 ± 9.9%
percent Bodipy-positive cells [6]: 96.8 ± 2.2%
percent Bodipy-positive cells [3]: 92 ± 5.4%
percent Bodipy-positive cells [1]: 12.5% and 20.9%

C#C[C@]1(OC(C)=O)CC[C@H]2[C@@H]3CCC4=CC(=NO)CC[C@@H]4[C@H]3CC[C@@]21CC (mixture of isomers) [Norgestimate]
percent Bodipy-positive cells (library stock concentration: 5.4 mM): 13 ± 3.9%

O=C(CCc1ccc(O)c(O)c1)N[C@@H](CC(=O)OCc1ccccc1)C(=O)OCc1ccccc1
percent Bodipy-positive cells [2]: 7.92 ± 0.73%

Cl.O[Si](CCCN1CCCCC1)(c1ccc(F)cc1)C1CCCCC1 (stereo unspecified) [Hexahydro-sila-difenidol hydrochloride, p-fluoro analog]
percent Bodipy-positive cells [1]: 95.2 ± 2%

CC(C)n1cnc2c(NCc3ccccc3O)nc(NCCCO)nc21 [Cdk Inhibitor, p35]
percent Bodipy-positive cells [3]: 25.1 ± 1.3%

Clc1ccc(C2(c3ccc(-c4cn[nH]c4)cc3)CCNCC2)cc1
percent Bodipy-positive cells [3]: 99.1 ± 1.2%

O=C1c2ccccc2C(=O)C1c1ccc(Cl)cc1
percent Bodipy-positive cells [1]: 46.2 ± 1.2%

COc1ccc2cc([C@H](C)CO)ccc2c1 [Naproxol]
percent Bodipy-positive cells (library stock concentration: 9.2 mM): 10.2 ± 7%
percent Bodipy-positive cells [1]: 28.5 ± 7.3%

CCCCCC1OC(O)CC1SC[C@H](NC(C)=O)C(=O)O (stereo partly specified) [4-hydroxy Nonenal Mercapturic Acid]
percent Bodipy-positive cells [2]: 12.3 ± 2.9%

N#CSc1cc(SC#N)c(N)nc1N
percent Bodipy-positive cells [3]: 72.2 ± 4.8%
percent Bodipy-positive cells [1]: 99.71 ± 0.42%

COc1cc2nc(N(C)CCCNC(=O)C3CCCO3)nc(N)c2cc1OC (stereo unspecified)
percent Bodipy-positive cells [1]: 11.7 ± 2%

COc1cc2nc(N(C)CCCNC(=O)C3CCCO3)nc(N)c2cc1OC (stereo unspecified) [Alfluzocin]
percent Bodipy-positive cells [1]: 28.94 ± 0.088%

COc1cc2nc(N(C)CCCNC(=O)C3CCCO3)nc(N)c2cc1OC (stereo unspecified) [Alfuzosin HCl]
percent Bodipy-positive cells [3]: 7.44 ± 1.1%
percent Bodipy-positive cells [1]: 23.7 ± 2%

COc1cc2nc(N(C)CCCNC(=O)C3CCCO3)nc(N)c2cc1OC (stereo unspecified) [Alfuzosin hydrochloride]
percent Bodipy-positive cells: 29.6 ± 12%
percent Bodipy-positive cells [1]: 59.3 ± 3.9%

COc1cc2nc(N(C)CCCNC(=O)C3CCCO3)nc(N)c2cc1OC (stereo unspecified) [Alfluzosin]
percent Bodipy-positive cells (library stock concentration: 5.1 mM): 9.71 ± 0.5%

Oc1ccc2ccccc2c1SSc1c(O)ccc2ccccc12
percent Bodipy-positive cells [3]: 29.83 ± 0.18%
percent Bodipy-positive cells [1]: 82.17 ± 0.19%

[O-]/[N+](=N\O[C@@H]1O[C@H](CO)[C@H](O)[C@H](O)[C@H]1O)N1CCCC1 [.beta.-Gal-NONOate]
percent Bodipy-positive cells [2]: 9.06 ± 1.8%

Clc1ccc(Cn2c(CN3CCCC3)nc3ccccc32)cc1 [Clemizole hydrochloride]
percent Bodipy-positive cells: 44.8 ± 6.3%

COc1ccc2c(c1)c(CC(=O)SC[C@H](NC(C)=O)C(=O)OCCCCO[N+](=O)[O-])c(C)n2C(=O)c1ccc(Cl)cc1 [NO-Indomethacin]
percent Bodipy-positive cells [2]: 11.3 ± 4.1%

CCCCc1nc2cc(/C=C/C(=O)NO)ccc2n1CCN(CC)CC [Pracinostat (SB939)]
percent Bodipy-positive cells [3]: 61.4 ± 6.4%
percent Bodipy-positive cells [1]: 56.6 ± 7.2%

CCCCc1nc2cc(/C=C/C(=O)NO)ccc2n1CCN(CC)CC
percent Bodipy-positive cells [4]: 39.4 ± 1.1%
percent Bodipy-positive cells [5]: 47.3 ± 3.3%
percent Bodipy-positive cells [6]: 84.6 ± 4.1%
percent Bodipy-positive cells [1]: 89.1 ± 2.5%

O=C(Nc1cccc2cccnc12)c1ccc(N2C(=O)C3C4C=CC(C4)C3C2=O)cc1 (stereo not drawn) [IWR-1-endo]
percent Bodipy-positive cells [3]: 15.4 ± 14%
percent Bodipy-positive cells [1]: 40.8 ± 19%

O=C(O)/C=C/c1ccc(O)c(O)c1 [Caffeic acid]
percent Bodipy-positive cells: 7.86 ± 0.2%

O=C(O)/C=C/c1ccc(O)c(O)c1 [Caffeic Acid]
percent Bodipy-positive cells [2]: 9.39 ± 2.9%
percent Bodipy-positive cells [3]: 8.11 ± 0.75%

CC1(C)CC(=O)c2c(C(F)(F)F)nn(-c3ccc(C(N)=O)c(N[C@H]4CC[C@H](O)CC4)c3)c2C1
percent Bodipy-positive cells [3]: 74.91 ± 0.13%
percent Bodipy-positive cells [1]: 70.9 ± 1.1%

NC(N)=Nc1ccc(Cl)cc1 [4-Chlorophenylguanidine hydrochloride]
percent Bodipy-positive cells [1]: 9.91 ± 1.1%

CCCCCCCCCCCCCCCC(=O)OC[C@@H](NC(=O)C(Cl)Cl)[C@H](O)c1ccc([N+](=O)[O-])cc1 [Chloramphenicol palmitate]
percent Bodipy-positive cells (library stock concentration: 3.6 mM): 1.56 ± 0.018%

Cc1[nH]c2ccccc2c1C1=C(NCCc2ccc(F)cc2)C(=O)N(C)C1=O
percent Bodipy-positive cells [3]: 28.4 ± 7.7%
percent Bodipy-positive cells [1]: 44.8 ± 0.66%

N=C(N)Nc1ccc(C(=O)Oc2ccc3cc(C(=N)N)ccc3c2)cc1 [Nafamostat Mesylate]
percent Bodipy-positive cells [3]: 7.27 ± 0.78%
percent Bodipy-positive cells [1]: 12.6 ± 6.5%

N=C(N)Nc1ccc(C(=O)Oc2ccc3cc(C(=N)N)ccc3c2)cc1 [Nafamostat mesylate]
percent Bodipy-positive cells (library stock concentration: 11.3 mM): 8.17 ± 0.11%

CC(Cc1ccccc1)(NC(=O)CN)c1ccccc1 (racemic)
percent Bodipy-positive cells [1]: 58.58 ± 0.088%

O=C1C(SCCO)=C(SCCO)C(=O)c2ccccc21
percent Bodipy-positive cells [1]: 99.73 ± 0.38%

OCC1OC(n2cnc3c(NC4CCCCC4)ncnc32)C(O)C1O (stereo unspecified) [N6-Cyclohexyladenosine]
percent Bodipy-positive cells [1]: 50.8 ± 6.1%

N[C@@H](Cc1c[nH]c2ccc(O)cc12)C(=O)O [5-hydroxytryptophan (5-HTP)]
percent Bodipy-positive cells [3]: 6.85 ± 1%
percent Bodipy-positive cells [1]: 14.2 ± 0.41%

Source: the supplement of paper PMC9135407
